In article doi:10.1101/2025.08.12.669905:
Read-outs that look alike come from different tables or passages of the source. These are yes or no findings as the source states them, for the method shown. In cells and extracts the contact can be indirect. Some entries that bind do so weakly or less than the wild type. For some assays here: Tags and fused reporters may be left off the sequences shown.

The chains behind the UniProt entries cited, without tags or fusion partners.
UniProt Q15648: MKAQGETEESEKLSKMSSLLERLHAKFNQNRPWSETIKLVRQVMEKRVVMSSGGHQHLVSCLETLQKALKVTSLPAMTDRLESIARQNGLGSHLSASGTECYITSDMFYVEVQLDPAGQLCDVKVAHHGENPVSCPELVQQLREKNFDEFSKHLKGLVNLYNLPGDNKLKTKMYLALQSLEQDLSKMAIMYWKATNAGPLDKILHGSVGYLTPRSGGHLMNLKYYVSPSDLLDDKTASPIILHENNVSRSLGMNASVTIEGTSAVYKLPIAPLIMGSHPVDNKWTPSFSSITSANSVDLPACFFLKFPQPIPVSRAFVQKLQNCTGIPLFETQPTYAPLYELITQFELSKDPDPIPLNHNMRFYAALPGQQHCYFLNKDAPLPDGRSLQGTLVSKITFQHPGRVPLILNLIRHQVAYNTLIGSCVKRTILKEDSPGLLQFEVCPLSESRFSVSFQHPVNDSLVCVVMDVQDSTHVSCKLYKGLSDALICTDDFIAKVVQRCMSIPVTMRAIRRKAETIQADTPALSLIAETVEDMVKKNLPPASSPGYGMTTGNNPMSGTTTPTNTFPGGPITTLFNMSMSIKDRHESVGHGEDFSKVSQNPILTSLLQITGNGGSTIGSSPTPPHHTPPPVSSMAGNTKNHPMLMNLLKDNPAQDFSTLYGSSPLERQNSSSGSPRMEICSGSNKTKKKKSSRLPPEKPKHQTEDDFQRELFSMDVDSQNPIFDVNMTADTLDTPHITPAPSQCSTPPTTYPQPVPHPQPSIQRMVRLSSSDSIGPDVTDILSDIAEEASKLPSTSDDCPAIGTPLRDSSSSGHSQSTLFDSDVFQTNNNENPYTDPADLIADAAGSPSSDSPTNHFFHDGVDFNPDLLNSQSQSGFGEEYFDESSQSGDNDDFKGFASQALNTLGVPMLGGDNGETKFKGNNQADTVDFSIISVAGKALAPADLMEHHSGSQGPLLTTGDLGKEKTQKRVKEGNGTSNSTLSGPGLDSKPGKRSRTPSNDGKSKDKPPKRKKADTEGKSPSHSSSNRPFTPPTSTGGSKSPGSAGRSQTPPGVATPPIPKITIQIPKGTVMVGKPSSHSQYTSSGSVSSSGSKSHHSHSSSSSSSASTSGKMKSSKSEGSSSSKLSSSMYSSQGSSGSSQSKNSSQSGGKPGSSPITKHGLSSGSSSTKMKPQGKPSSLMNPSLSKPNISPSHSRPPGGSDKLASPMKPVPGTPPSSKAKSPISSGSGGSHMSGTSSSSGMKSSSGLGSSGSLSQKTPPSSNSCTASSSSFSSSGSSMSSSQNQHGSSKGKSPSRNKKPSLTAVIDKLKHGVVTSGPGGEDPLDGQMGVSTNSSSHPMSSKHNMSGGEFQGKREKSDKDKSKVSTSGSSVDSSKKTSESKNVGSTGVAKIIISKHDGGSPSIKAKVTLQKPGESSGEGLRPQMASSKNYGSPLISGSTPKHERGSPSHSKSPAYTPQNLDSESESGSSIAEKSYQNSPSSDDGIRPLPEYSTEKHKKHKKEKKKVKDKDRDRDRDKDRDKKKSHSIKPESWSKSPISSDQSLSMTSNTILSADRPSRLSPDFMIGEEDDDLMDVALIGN
UniProt Q93074: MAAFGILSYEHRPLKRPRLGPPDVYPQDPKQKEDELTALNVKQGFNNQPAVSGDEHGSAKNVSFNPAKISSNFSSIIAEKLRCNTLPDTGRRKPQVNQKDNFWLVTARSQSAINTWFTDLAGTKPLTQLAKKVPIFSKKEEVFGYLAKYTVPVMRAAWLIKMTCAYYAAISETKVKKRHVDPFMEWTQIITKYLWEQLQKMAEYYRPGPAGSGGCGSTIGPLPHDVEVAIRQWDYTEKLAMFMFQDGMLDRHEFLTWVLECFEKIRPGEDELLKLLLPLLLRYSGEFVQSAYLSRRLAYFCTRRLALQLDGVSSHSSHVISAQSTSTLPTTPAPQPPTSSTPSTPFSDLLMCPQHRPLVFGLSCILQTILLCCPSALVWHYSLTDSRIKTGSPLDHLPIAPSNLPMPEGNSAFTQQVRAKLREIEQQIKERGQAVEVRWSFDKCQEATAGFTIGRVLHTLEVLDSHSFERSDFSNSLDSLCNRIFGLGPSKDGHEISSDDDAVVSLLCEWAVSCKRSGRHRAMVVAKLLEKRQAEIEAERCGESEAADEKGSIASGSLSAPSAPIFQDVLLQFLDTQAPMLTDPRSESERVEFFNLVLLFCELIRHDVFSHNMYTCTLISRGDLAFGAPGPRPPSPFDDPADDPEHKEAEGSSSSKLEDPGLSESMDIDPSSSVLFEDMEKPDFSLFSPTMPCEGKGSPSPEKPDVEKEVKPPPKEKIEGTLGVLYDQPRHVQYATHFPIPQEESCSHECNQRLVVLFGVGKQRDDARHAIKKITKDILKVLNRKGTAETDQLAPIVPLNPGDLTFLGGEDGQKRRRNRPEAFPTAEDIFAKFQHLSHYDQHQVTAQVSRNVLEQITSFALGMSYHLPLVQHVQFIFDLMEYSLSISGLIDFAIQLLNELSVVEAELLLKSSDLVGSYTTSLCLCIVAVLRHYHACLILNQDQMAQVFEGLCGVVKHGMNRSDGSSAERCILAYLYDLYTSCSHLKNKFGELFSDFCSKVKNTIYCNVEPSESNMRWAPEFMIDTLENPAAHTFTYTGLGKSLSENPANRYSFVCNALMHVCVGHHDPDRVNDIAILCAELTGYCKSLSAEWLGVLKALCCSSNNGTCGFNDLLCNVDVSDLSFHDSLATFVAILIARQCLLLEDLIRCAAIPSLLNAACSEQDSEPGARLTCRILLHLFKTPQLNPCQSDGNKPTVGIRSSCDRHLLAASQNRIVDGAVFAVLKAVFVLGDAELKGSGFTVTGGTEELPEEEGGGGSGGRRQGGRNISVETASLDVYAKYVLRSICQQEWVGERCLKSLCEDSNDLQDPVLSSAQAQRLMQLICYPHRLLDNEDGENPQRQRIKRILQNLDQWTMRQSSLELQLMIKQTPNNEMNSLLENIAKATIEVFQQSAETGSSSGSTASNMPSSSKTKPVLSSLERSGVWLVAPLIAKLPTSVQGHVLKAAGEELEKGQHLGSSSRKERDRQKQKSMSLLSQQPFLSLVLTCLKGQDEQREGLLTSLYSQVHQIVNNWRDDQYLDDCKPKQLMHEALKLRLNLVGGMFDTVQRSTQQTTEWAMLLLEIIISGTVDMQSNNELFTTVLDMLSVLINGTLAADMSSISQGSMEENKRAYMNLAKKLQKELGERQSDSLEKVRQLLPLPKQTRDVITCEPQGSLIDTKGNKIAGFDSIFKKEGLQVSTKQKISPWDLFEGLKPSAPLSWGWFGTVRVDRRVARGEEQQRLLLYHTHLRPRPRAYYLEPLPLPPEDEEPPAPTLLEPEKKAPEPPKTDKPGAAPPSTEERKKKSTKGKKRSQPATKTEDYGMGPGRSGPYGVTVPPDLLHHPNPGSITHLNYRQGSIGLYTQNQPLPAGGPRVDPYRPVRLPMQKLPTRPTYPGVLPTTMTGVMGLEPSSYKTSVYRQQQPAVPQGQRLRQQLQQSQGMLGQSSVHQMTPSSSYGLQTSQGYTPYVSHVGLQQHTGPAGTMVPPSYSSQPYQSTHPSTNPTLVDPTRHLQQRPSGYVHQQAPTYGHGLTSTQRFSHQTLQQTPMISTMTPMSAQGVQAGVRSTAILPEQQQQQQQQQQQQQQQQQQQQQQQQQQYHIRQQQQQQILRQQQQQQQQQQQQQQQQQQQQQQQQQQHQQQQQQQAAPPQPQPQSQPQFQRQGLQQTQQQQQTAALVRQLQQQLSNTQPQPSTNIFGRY
UniProt P49336: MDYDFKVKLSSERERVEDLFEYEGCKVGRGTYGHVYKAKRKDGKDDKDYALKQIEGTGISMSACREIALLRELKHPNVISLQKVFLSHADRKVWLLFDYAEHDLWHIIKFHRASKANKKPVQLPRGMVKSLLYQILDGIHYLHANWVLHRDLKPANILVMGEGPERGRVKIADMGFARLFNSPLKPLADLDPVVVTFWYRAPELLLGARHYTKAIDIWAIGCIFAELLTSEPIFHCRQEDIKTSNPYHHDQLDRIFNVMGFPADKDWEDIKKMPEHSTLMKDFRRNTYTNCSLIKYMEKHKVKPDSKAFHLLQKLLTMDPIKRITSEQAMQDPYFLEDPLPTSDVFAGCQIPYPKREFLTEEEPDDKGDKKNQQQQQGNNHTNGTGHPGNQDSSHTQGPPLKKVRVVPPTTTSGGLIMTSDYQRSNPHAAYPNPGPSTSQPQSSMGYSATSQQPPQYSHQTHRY

How the values were obtained:
Assay in all cases: co-IP
[1] = target: MED1 (endogenous) (human (endogenous in 293T and HeLa)) (UniProt Q15648)
[2] = target: T1, Flag-UBP1, full length (human) (UniProt Q9NZI7)
T1 sequence: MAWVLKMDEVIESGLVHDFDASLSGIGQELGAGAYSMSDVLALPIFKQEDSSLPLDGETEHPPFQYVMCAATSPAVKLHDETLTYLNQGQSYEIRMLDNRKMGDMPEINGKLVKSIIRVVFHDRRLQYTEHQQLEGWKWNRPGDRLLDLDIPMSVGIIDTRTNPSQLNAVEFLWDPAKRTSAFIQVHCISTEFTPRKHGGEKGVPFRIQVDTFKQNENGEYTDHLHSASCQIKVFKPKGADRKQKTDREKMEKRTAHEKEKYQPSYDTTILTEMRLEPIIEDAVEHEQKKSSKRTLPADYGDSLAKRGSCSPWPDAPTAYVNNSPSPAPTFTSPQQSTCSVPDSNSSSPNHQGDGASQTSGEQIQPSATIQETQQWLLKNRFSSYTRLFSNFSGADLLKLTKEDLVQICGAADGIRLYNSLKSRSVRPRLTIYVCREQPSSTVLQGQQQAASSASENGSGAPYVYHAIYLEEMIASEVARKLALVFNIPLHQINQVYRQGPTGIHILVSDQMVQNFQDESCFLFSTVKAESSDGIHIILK

[3] = target: MED12 (endogenous) (human (endogenous in 293T and HeLa)) (UniProt Q93074)
[4] = target: T2, Flag-UBP1 ΔSAM (1-369aa) (human) (UniProt Q9NZI7)
T2 sequence: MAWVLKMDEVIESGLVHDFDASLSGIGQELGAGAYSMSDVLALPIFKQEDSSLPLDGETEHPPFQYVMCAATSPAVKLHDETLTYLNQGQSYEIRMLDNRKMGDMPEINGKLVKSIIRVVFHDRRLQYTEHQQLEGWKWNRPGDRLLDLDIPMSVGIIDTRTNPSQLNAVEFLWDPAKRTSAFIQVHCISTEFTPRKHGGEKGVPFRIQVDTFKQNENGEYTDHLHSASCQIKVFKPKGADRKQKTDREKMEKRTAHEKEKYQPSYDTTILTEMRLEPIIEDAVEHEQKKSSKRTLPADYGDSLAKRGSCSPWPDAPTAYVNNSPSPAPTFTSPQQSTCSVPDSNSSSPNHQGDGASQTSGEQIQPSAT

[5] = target: CDK8 (endogenous) (human (endogenous in 293T and HeLa)) (UniProt P49336)
[6] = target: T3, TFCP2 (endogenous) (human (endogenous in HeLa and 293T)) (UniProt Q12800)
T3 sequence: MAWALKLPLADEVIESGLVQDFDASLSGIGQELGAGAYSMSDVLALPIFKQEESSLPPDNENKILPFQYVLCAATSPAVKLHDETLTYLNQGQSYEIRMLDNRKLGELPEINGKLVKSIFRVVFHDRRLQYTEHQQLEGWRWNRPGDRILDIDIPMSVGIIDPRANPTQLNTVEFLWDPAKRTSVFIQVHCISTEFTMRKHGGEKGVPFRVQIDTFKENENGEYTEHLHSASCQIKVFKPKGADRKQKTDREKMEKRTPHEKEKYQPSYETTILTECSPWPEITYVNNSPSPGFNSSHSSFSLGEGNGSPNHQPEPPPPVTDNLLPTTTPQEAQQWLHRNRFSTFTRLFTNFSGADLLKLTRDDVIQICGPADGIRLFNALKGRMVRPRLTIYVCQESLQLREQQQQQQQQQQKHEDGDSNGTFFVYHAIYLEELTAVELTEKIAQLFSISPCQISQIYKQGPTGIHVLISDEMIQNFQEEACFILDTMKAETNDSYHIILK

[7] = target: T3, TFCP2 (endogenous) (human (endogenous in HeLa and 293T)); remark: listed apart in the source
[8] = target: MED1 (endogenous) (human (endogenous in 293T and HeLa)) (UniProt Q15648); remark: listed apart in the source
[9] = target: MED1 (endogenous) (human (endogenous in 293T and HeLa)) (UniProt Q15648); remark: listed apart in the source
[10] = target: MED12 (endogenous) (human (endogenous in 293T and HeLa)) (UniProt Q93074); remark: listed apart in the source
[11] = target: CDK8 (endogenous) (human (endogenous in 293T and HeLa)) (UniProt P49336); remark: listed apart in the source

Measured: binding

B1: Mediator subunit MED16 (endogenous) (protein, UniProt Q9Y2X0 1-877)
chain: MCDLRRPAAGGMMDLAYVCEWEKWSKSTHCPSVPLACAWSCRNLIAFTMDLRSDDQDLTRMIHILDTEHPWDLHSIPSEHHEAITCLEWDQSGSRLLSADADGQIKCWSMADHLANSWESSVGSLVEGDPIVALSWLHNGVKLALHVEKSGASSFGEKFSRVKFSPSLTLFGGKPMEGWIAVTVSGLVTVSLLKPSGQVLTSTESLCRLRGRVALADIAFTGGGNIVVATADGSSASPVQFYKVCVSVVSEKCRIDTEILPSLFMRCTTDLNRKDKFPAITHLKFLARDMSEQVLLCASSQTSSIVECWSLRKEGLPVNNIFQQISPVVGDKQPTILKWRILSATNDLDRVSAVALPKLPISLTNTDLKVASDTQFYPGLGLALAFHDGSVHIVHRLSLQTMAVFYSSAAPRPVDEPAMKRPRTAGPAVHLKAMQLSWTSLALVGIDSHGKLSVLRLSPSMGHPLEVGLALRHLLFLLEYCMVTGYDWWDILLHVQPSMVQSLVEKLHEEYTRQTAALQQVLSTRILAMKASLCKLSPCTVTRVCDYHTKLFLIAISSTLKSLLRPHFLNTPDKSPGDRLTEICTKITDVDIDKVMINLKTEEFVLDMNTLQALQQLLQWVGDFVLYLLASLPNQGSLLRPGHSFLRDGTSLGMLRELMVVIRIWGLLKPSCLPVYTATSDTQDSMSLLFRLLTKLWICCRDEGPASEPDEALVDECCLLPSQLLIPSLDWLPASDGLVSRLQPKQPLRLQFGRAPTLPGSAATLQLDGLARAPGQPKIDHLRRLHLGACPTEECKACTRCGCVTMLKSPNRTTAVKQWEQRWIKNCLAVEGRGPDACVTSRASEEAPAFVQLGPQSTHHSPRTPRSLDHLHPEDRP
binds: all assays above
